Assay [1] has as its target N-terminal domain of Arabidopsis SEPARASE, fused with the binding domain (BD) (Arabidopsis thaliana). As to the kind of experiment: two-hybrid.
Assay [2] concerns the target APC/C activator subunit CDC20. Description: two-hybrid.

No constants are given. Whether binding was seen depends on the method and setting. A result given as binding can be weak or reduced; the word gives no strength. Sequences can lack the tags named with a protein.

B1: PATRONUS1 (PANS1), fused with the activating domain (AD) (protein, UniProt Q9LJG6 1-193)
chain: MANMNALQQMIFPDENAPIHRKKSVTAASVKSKGTVLGQKKPGGARKALNDITNKSGIHAKAAASSKNKQIASAAVKEIDIAGERFLHDHSKCIKEQQNLWDDHYSADLMLLHHGSSIKEKHLNWDIEKMDAKDDLTYEEPEEMASPKFSDWLKNSTPWRSPIRHGSMMPSTPLAWRFDSCEFTLKEDSDDLF
With B1, the binding result in assay [1] is “binds”.

B2: PATRONUS2 (PANS2), fused with the activating domain (AD) (protein, UniProt Q94CK6 1-194)
chain: MANTILRGQMIFQDENALAALGKKAVAAGKGKSSLAAPKKNGAGFGSRKALHDITNKSKLQPQASSTTRKDVEGVDFDIAKEGFLHDHSKCIEEQQQDQWDSYFSEHIILHGHETNIKEGVPQYNNIQEIDAENSWDELKEIPMEEFSDLLECSTQWRSPPDSLSHHHSSLPSSPLPWHFETVEFKLKEDEDTT
B2: the binding entry in assay [1] and in assay [2] was “binds” throughout.

These data come from doi:10.1101/606285.
